Experimental data from patent publication US20060089387A1, “Stabilized pharmaceutical composition comprising antidiabetic agent” (priority 2004, published 2006).
Some entries share one result that the patent states for a list of compounds.

Assay: Solubility (complete dissolution) in solvents
Assay type: physicochemical
Settings: for complete dissolution in acetonitrile, concentration: elevated temperature (e.g., 50° C.); for complete dissolution in ethanol, concentration: increased temperature (50° C.); for complete dissolution in methanol, concentration: increased temperature (e.g., 50° C.); for complete dissolution in tetrahydrofuran, concentration: ambient temperature (e.g., 25° C.)

SMILES	complete dissolution in acetonitrile, concentration [mg per 100 ml]	complete dissolution in ethanol, concentration [mg per 100 ml]	complete dissolution in methanol, concentration	complete dissolution in tetrahydrofuran, concentration [mg per 50 ml]
CN(CCOc1ccc(CC2SC(=O)NC2=O)cc1)c1ccccn1 (racemic) [free rosiglitazone, (±)5-[4-[2-(N-methyl-N-(2-pyridyl)amino)ethoxy]benzyl]thiazolidine-2,4-dione]	≥ 500	≥ 500	≥ 500 mg per 100 milliliter (ml)	≥ 500
CCc1ccc(CCOc2ccc(CC3SC(=O)NC3=O)cc2)nc1 (racemic) [free pioglitazone, [(±)5-[[2-(5-ethyl-2-pyridinyl)ethoxyl]phenyl]methyl]-thiazolidine-2,4-dione]	≥ 500	≥ 500	≥ 500 mg per 100 milliliter (ml)	≥ 500
